Measured values: paper PMC12287301
No constants are given. Whether binding was seen depends on the method and setting. Some binding calls cover weakened binding; strength is not graded here. Where a sequence is shown, tags or fusion partners need not be part of it.

Amino acid sequences for entries named in this document (tags omitted).
UniProt Q9FMX2: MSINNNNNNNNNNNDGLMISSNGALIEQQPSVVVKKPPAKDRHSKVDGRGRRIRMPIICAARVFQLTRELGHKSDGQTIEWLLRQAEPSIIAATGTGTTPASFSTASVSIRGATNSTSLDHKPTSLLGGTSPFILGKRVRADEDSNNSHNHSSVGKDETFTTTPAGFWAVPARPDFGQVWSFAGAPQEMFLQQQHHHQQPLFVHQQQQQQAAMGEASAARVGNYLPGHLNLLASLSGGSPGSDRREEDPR
UniProt Q93Z00: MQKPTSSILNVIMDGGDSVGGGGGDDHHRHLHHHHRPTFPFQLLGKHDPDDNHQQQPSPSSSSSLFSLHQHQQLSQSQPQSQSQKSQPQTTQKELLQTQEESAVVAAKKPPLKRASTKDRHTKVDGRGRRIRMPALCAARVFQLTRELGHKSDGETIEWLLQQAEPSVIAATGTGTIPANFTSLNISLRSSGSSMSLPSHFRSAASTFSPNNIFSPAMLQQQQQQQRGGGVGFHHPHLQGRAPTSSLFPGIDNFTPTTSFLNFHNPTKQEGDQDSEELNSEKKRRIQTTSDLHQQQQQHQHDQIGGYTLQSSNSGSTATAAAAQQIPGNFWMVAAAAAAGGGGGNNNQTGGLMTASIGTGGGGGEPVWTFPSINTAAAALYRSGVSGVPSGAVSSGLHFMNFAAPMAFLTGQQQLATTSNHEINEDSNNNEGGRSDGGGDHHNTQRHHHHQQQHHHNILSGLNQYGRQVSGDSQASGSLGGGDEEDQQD
UniProt Q9FTA2: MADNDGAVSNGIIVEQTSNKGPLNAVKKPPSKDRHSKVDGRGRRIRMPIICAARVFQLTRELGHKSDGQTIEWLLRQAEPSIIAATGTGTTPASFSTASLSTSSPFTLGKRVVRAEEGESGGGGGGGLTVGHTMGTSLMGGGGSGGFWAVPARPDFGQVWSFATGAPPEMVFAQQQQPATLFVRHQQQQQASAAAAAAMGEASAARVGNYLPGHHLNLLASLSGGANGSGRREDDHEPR

Molecular target: T1, BD-DSK2B (Arabidopsis thaliana) (UniProt Q9SII8)
T1 sequence: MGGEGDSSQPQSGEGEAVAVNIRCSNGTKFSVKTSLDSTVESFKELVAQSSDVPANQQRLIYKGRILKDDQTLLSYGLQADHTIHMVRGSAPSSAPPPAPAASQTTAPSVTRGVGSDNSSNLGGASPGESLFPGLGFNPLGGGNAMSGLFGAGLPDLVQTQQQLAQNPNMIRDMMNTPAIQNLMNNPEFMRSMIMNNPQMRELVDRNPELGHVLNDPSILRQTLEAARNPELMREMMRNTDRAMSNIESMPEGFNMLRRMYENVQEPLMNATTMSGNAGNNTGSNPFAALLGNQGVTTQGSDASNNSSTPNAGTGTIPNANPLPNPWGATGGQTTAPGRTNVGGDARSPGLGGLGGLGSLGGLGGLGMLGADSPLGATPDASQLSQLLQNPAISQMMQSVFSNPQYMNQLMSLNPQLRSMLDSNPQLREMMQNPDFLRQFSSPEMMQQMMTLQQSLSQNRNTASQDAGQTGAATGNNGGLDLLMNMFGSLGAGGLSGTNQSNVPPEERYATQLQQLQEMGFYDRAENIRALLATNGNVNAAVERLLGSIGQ
Experiment: two-hybrid; pair-wise test in Y2H-Gold; colonies from SD-L-W plates transferred onto SD-L-W-H and SD-L-W-A-H plates

Substance	binding
AD-TCP7 (from UniProt Q9FMX2 1-250)	binds
AD-TCP14 (from UniProt Q93Z00 1-489)	binds
AD-TCP15 (from UniProt Q9C9L2 1-325)	binds
AD-TCP21 (from UniProt Q9FTA2 1-239)	binds
